Measurements published in PMC3260263, “Structural Characterization of a Novel Chlamydia pneumoniae Type III Secretion-Associated Protein, Cpn0803” (PLoS ONE, 2012).
Results are given in words; binding and its absence hold for the method and conditions named. Binding seen in cells or lysates may run through a third protein. Some entries that bind do so weakly or less than the wild type. Tags and fused reporters may be left off the sequences shown.

Molecular target: T1, GST-Cpn0803 (Chlamydia pneumoniae CWL029) (UniProt Q9Z7A3)
T1 sequence: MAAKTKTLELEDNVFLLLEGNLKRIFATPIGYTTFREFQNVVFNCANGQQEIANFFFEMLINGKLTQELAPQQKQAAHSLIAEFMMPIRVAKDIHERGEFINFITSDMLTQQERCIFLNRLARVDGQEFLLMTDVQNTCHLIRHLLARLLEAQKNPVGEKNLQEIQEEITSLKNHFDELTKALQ
Assay: pull-down; C. pneumoniae EB lysate (PBS, 1% Triton X-100) incubated with recombinant GST-tagged proteins for 6 h, glutathione agarose beads overnight; washed with 500 mM NaCl; Western blot with anti-Cpn0803; only the target purified

B1: native Cpn0803 (protein, UniProt Q9Z7A3 1-184)
chain: MAAKTKTLELEDNVFLLLEGNLKRIFATPIGYTTFREFQNVVFNCANGQQEIANFFFEMLINGKLTQELAPQQKQAAHSLIAEFMMPIRVAKDIHERGEFINFITSDMLTQQERCIFLNRLARVDGQEFLLMTDVQNTCHLIRHLLARLLEAQKNPVGEKNLQEIQEEITSLKNHFDELTKALQ
With B1 the binding was “binds”.
